In US20080044390A1, “Methods and compositions for the treatment of neurodegenerative disorders” (priority 2006, published 2008):

System: PC12/HttN90Q103 cells
Test: ATPlite assay, rescue of HttN90Q103-induced cell death
Assay type: cell-based, rat
Details: single agent
Text: In this stable PC12 line (PC12/HttN90Q103), transcription of the Htt transgene is driven by an ecdysone-regulated promoter such that the expression of HttN90Q103 can be turned on or off by the addition or removal of the non-steroidal ecdysone analog tebufenozide (teb).
Using the engineered PC12/HttN90Q103 cell line together with Perkin Elmer's ATPlite™ assay kit or CellTiter-Blue™ assay, a high throughput assay to screen small molecules for their ability to prevent mutant Htt exon 1-induced cell death was developed and optimized.
The following formulas were used to calculate mutant Htt-induced cytotoxicity and test compound rescue: % killing=[(un-induced−induced-DMSO treated)/un-induced]×100 % rescue=[(drug treated−induced-DMSO treated)/(un-induced−induced-DMSO treated)]×100
For single-agent ranking, the assay was performed in 384-well plates to obtain duplicate dose response curves in 12-step dilutions with a dosing ratio f=2 over 3 orders of magnitude. […]
Day 4—Perform ATPlite™ Assay • 1) Take plates out of the incubator. • 2) Using the PlateMate, add 40 μL of ATPlite™ 1-step solution (Perkin Elmer) to each well of the assay plates. • 3) Wait ten minutes to allow plates to dark-adapt. • 4) Read luminescence intensity in Wallac plate reader using […]

SMILES: O=C1NC(=O)C(c2ccccc2[N+](=O)[O-])=C1Nc1ccc(O)c(Cl)c1 [SB-415286]
- Max Effect (% rescue) (250 nM tebufenozide induction): 52%
- EC50 (sigmoidal fit of 12-step dose response): 12.9 µM
